Laboratory results from patent US9726664B2, “Animal model for diabetic complications” (NEDERLANDSE ORGANISATIE VOOR …, priority 2010, dated 2017).
At least one structure is not confirmed: it was looked up by name or label, or the drawing left a doubt. Some compounds share one wording; it may come from a single statement.

Assays:
[1] = system: LDLr−/− mice; assay: Intervention study in LDLr−/− mice on 45 En % Lard diet: microalbuminuria (albumine/creatinine ratio in spot urine); format: in vivo; conditions: compared to high fat treated control animals not treated with drugs, ratio as μg albumine per mg creatinine, drug mixed into 45 En % Lard diet from week 9 until week 16, FIG. 7
Protocol: Several anti-diabetic interventions (drugs and life-style) were tested according to the experimental set-up described above.
(§1) After these 9 weeks, the interventions were started and continued until week 16. Drugs were mixed into lard diet and administered orally via the feed. One group of mice was sacrifice at the start of the intervention at week 9 for reference. Another control group was fed chow throughout the 16 weeks (serving as internal reference). The groups were as follows:
(§2) Body weight and food intake were measured regularly and blood samples were taken at t=0, t=6, t=9, t=12, t=14 and t=15 weeks. Spot urine was collected at t=0, t=8 and t=15 weeks. At the end of the study, the mice were sacrificed and the various organs were isolated and weighed and stored at −80 C and/or in formalin. Livers were processed for microarray analysis. More specifically, the same lobe of each liver was used for RNA extraction to prepare mRNA of microarray quality according to an established protocol (Kleemann et al., Genome Biology, 2007).
Microalbuminuria is a hallmark of diabetic nephropathy and was determined by measuring the concentration of albumine and creatinine in spot urine collected at various time points during the experiment. Subsequently the albumine/creatinine ratio was calculated, viz. the amount of albumine expressed in μg per mg creatinine (FIG. 7).

[2] = system: LDLr−/− mice; assay: Intervention study in LDLr−/− mice on 45 En % Lard diet: body weight and adipose depots; format: in vivo; conditions: for gonadal fat mass: drug mixed into diet from week 9 until week 16, FIG. 6; for body weight: drug mixed into diet, orally via feed, from week 9 until week 16, FIG. 5
Protocol: Based on the findings of the above experiment, an intervention study was designed. The middle dose (45 En % lard diet) was defined to be the optimal diet to use for interventions with drugs since ALAT was not increased Thereby putative adverse liver effects of drugs can still be detected. Several anti-diabetic interventions (drugs and life-style) were tested according to the experimental set-up described above.
as §1, with “LDLr−/− mice (12 weeks old) were fed 45 En % Lard diet for 9 weeks to establish a prediabetic state (as described above and including visceral adiposity, hypertriglyceridemia, elevated glucose and insulin, chronic inflammation). After” for “After”
as §2

[3] = drug mixed into diet from week 9 until week 16

Row | SMILES | albumine/creatinine ratio (microalbuminuria) [1] | gonadal fat mass [2] | body weight [2] | Total adipose tissue [2, 3] | subcutaneous fat [2, 3]
1 | CCc1ccc(CCOc2ccc(CC3SC(=O)NC3=O)cc2)nc1 (stereo not drawn) [pioglitazone] | significantly improved |  |  |  | 
2 | CC(C)OC(=O)C(C)(C)Oc1ccc(C(=O)c2ccc(Cl)cc2)cc1 [fenofibrate] | significantly improved | lowered | reduced |  | 
3 | CN(CCOc1ccc(CC2SC(=O)NC2=O)cc1)c1ccccn1 (stereo not drawn) [rosiglitazone] | significantly improved | reduced | slightly increased | unaffected | increased
